The experiment addresses phosphorylated Stat3 (human (endogenous in LN229 and 229R)) (UniProt P40763). As to the kind of experiment: co-IP; lysates (IP lysis buffer) of LN229, 229R, 229R Scra and 229R KD_lnc (lnc-TALC knock-down) cells incubated with 5 µg anti-p-Stat3 or anti-p300 overnight at 4 °C, protein A agarose beads, western blot for the other protein; both directions.

Sequences of proteins named here, by UniProt entry; tags and fusion partners are left off.
UniProt P40763: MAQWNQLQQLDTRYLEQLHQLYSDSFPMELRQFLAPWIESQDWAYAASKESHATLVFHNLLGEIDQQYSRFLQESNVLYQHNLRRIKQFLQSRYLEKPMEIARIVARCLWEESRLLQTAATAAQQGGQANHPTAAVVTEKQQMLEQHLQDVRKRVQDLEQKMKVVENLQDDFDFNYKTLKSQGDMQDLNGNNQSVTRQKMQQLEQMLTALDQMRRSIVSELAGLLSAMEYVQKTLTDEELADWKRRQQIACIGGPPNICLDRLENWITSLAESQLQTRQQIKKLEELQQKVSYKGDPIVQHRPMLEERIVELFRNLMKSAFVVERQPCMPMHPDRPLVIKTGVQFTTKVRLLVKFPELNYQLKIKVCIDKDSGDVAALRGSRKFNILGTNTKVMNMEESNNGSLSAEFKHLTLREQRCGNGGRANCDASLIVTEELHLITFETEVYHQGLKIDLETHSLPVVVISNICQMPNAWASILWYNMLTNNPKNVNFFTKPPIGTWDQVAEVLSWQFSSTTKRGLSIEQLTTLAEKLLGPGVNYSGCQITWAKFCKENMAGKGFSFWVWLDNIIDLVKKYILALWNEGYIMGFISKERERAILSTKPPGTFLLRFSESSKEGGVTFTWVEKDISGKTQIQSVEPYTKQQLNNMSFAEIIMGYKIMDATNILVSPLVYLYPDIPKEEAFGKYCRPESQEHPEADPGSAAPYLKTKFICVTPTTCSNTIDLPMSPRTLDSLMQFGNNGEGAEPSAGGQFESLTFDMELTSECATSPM
UniProt Q09472: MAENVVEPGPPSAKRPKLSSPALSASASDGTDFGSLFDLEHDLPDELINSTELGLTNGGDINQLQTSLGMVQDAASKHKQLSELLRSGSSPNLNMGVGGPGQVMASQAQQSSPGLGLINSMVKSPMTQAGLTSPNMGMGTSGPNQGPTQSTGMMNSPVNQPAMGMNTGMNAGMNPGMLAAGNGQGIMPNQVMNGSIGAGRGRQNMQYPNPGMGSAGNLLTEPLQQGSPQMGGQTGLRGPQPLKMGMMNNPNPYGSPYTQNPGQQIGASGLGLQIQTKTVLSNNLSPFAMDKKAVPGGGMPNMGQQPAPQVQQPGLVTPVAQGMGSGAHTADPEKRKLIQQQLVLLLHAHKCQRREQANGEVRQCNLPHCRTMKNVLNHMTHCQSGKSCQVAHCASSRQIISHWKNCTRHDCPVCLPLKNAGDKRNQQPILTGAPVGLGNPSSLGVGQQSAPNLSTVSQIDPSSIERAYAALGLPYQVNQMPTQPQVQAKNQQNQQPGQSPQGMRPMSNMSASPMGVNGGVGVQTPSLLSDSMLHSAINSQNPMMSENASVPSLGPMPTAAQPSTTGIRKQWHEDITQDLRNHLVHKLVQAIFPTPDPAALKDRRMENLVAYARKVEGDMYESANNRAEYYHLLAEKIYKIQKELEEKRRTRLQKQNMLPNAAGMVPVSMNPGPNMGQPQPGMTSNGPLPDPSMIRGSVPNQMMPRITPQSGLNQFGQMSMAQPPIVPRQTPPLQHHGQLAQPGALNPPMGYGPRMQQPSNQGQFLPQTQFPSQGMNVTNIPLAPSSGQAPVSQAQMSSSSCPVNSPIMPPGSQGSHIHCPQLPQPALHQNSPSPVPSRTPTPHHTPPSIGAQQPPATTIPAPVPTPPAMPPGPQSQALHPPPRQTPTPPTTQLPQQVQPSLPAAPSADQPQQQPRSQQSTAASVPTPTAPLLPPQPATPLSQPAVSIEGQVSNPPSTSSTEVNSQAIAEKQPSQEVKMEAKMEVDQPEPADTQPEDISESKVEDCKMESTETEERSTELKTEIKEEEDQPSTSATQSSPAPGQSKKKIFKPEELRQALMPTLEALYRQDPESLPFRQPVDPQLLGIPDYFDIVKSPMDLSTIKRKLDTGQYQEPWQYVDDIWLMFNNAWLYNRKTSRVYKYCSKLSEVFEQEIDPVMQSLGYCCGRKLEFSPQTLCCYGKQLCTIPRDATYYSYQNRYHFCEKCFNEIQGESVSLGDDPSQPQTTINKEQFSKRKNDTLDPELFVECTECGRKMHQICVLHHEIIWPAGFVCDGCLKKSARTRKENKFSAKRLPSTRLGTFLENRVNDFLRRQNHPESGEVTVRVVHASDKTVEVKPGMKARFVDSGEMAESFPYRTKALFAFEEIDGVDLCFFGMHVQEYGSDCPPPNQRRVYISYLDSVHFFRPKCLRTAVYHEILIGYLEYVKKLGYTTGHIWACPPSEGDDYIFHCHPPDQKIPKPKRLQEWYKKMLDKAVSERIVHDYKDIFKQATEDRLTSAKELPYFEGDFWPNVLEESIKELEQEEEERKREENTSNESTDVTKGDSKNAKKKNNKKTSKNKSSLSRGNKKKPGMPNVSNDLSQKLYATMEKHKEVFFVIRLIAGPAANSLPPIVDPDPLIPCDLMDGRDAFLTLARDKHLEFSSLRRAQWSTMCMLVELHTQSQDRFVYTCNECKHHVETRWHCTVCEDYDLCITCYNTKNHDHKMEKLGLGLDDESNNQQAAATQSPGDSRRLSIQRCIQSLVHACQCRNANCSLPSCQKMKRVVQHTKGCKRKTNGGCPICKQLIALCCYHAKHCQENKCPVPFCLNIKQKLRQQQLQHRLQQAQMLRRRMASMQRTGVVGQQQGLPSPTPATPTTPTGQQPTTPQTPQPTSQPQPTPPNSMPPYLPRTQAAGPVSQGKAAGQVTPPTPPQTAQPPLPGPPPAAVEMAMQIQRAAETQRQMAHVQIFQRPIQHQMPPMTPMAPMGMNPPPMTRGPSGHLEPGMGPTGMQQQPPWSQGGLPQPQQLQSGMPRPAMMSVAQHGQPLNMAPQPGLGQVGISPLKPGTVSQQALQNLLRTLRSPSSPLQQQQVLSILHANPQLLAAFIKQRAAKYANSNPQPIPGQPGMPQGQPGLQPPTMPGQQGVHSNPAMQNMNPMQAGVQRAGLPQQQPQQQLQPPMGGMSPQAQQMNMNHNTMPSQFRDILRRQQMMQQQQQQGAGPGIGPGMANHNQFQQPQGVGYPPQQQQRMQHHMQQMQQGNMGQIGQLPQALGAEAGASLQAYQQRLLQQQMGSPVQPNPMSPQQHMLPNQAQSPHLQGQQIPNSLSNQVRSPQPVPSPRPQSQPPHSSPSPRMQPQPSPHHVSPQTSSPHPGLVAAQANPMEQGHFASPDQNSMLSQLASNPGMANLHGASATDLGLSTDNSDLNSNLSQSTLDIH

No constants are given. Whether binding was seen depends on the method and setting. In cells and extracts the contact can be indirect. Some binding calls cover weakened binding; strength is not graded here.

As to “histone acetyltransferase p300 (from UniProt Q09472 1-2414)”, the binding result was “binds”.

The record behind these values is article PMC6499807.
